For one substance, binding results are on record in publication doi:10.1101/2020.06.13.149989.

Results are given in words; binding and its absence hold for the method and conditions named. In cells and extracts the contact can be indirect. Some results given as binding are weak or reduced against the parent protein; the word gives no strength.

The assay addresses p9 protein on Sepharose beads (UniProt P61024). Description: pull-down.

Regarding CDK2 (from UniProt P23437 1-297), the binding result is listed as “binds”.
